Laboratory results reported in the supplement of paper PMC10849652.
The other results are listed elsewhere or left out.

Sequences of proteins named here, by UniProt entry; tags and fusion partners are left off. A change or cut given only in a name is not applied to a line headed by its entry.
UniProt P08397: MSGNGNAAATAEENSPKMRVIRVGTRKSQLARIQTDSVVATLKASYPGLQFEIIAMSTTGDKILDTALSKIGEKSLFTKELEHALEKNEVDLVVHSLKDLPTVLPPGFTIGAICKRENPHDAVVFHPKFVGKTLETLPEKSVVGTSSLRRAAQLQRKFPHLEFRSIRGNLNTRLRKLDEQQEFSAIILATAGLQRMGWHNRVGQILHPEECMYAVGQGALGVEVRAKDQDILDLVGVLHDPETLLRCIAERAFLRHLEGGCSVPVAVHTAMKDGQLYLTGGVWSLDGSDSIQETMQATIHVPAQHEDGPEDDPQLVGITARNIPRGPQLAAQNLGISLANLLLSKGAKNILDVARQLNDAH
UniProt Q92506: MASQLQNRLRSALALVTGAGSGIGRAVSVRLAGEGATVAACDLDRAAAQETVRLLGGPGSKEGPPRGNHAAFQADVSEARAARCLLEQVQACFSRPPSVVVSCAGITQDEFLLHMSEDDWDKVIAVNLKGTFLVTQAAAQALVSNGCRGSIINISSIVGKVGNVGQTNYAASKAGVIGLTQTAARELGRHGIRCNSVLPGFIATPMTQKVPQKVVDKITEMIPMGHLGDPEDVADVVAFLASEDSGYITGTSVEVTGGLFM
UniProt Q5SSJ5: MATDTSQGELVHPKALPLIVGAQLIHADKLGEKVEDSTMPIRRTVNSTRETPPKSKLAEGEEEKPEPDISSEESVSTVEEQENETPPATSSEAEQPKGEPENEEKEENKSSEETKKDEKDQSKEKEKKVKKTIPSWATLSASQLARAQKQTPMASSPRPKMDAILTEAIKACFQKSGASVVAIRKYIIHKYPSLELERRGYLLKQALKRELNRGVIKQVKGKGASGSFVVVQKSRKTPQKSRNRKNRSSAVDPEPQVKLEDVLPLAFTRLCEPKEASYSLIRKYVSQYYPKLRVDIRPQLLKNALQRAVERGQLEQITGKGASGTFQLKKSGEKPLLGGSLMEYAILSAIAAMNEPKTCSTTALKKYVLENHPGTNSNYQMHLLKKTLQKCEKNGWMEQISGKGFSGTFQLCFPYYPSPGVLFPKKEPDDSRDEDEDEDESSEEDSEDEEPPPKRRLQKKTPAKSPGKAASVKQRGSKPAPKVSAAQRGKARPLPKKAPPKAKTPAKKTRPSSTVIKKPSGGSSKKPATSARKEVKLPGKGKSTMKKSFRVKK
UniProt P19367: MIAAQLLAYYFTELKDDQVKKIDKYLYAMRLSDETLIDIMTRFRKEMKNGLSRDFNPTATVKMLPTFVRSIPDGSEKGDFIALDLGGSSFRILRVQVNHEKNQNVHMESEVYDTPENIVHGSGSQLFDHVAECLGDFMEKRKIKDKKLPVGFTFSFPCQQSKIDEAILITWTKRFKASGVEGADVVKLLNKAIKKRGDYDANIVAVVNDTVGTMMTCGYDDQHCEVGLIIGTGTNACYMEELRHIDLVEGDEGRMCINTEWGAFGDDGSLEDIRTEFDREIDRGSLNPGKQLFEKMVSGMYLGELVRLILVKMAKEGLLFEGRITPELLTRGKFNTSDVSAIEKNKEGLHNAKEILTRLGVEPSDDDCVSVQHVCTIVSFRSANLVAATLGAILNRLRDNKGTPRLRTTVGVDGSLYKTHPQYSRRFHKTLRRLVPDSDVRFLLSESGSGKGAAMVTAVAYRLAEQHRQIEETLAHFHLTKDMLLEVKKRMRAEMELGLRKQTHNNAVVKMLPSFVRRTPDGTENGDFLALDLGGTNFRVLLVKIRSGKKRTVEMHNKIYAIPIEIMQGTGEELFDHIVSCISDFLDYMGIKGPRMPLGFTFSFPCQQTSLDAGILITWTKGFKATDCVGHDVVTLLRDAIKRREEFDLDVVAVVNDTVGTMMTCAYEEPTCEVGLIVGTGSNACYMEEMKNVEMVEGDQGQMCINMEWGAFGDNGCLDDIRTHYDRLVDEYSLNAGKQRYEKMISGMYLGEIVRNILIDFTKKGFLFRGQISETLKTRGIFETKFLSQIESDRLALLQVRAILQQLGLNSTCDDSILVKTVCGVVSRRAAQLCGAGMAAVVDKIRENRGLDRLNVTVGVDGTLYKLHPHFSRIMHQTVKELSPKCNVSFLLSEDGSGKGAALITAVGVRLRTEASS
UniProt P82970: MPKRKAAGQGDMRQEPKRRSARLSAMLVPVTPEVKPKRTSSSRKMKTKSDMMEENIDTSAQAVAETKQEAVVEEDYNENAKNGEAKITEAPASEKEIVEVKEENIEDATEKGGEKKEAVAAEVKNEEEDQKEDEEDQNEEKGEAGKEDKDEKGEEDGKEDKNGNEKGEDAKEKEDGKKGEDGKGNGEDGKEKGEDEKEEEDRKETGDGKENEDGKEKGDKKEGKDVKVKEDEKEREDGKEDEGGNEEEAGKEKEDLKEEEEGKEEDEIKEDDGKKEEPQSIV
UniProt O15347: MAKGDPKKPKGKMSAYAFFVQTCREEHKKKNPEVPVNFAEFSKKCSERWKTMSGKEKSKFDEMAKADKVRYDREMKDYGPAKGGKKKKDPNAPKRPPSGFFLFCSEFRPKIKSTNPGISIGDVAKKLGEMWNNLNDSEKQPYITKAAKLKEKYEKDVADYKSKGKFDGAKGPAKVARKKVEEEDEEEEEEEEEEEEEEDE

Tests used:
Assay in all cases: log2 fold change, soluble protein after heating vs DMSO (PISA); higher = thermal stabilisation; K562 lysate, 10 uM; active = over 0.2 and 3.5 SD of the protein, either way, in both replicates (recomputed)
lapatinib = compound: CS(=O)(=O)CCNCc1ccc(-c2ccc3ncnc(Nc4ccc(OCc5cccc(F)c5)c(Cl)c4)c3c2)o1 [lapatinib]
Method in brief: (§1)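 To prepare the extract, K562 pellets were dounce-homogenised in PBS pH 7.4 with 1 mM MgCl2, giving crude material at 1 mg/mL protein. This was treated with 10 μM compound for 30 min, then heated in aliquots for 3 min over 48°C-58°C before pooling and addition of NP-40 to 0.5% at 4°C. Centrifugation at 21,000xg for 90 min left soluble protein in the supernatant, which TMTpro 16plex LC-MS/MS quantified with equalised channel sums. Results are log-two fold changes in thermal stability compared with solvent controls, from duplicates.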

pictilisib = compound: CS(=O)(=O)N1CCN(Cc2cc3nc(-c4cccc5[nH]ncc45)nc(N4CCOCC4)c3s2)CC1 [pictilisib]
Method in brief: as §1

crizotinib = compound: C[C@@H](Oc1cc(-c2cnn(C3CCNCC3)c2)cnc1N)c1c(Cl)ccc(F)c1Cl [crizotinib]
Method in brief: as §1

[1] = compound: C[C@H](C1=CC=C(C=C1)C(=O)NC2=C3C=CNC3=NC=C2)N
Method in brief: as §1

duvelisib = compound: C[C@H](Nc1ncnc2nc[nH]c12)c1cc2cccc(Cl)c2c(=O)n1-c1ccccc1 [duvelisib]
Method in brief: as §1

gandotinib = compound: Cc1cc(Nc2cc(CN3CCOCC3)c3nc(C)c(Cc4ccc(Cl)cc4F)n3n2)n[nH]1 [gandotinib]
Method in brief: as §1

tozasertib = compound: Cc1cc(Nc2cc(N3CCN(C)CC3)nc(Sc3ccc(NC(=O)C4CC4)cc3)n2)n[nH]1 [tozasertib]
Method in brief: as §1

doramapimod = compound: Cc1ccc(-n2nc(C(C)(C)C)cc2NC(=O)Nc2ccc(OCCN3CCOCC3)c3ccccc23)cc1 [doramapimod]
Method in brief: as §1

bafetinib = compound: Cc1ccc(NC(=O)c2ccc(CN3CC[C@H](N(C)C)C3)c(C(F)(F)F)c2)cc1Nc1nccc(-c2cncnc2)n1 [bafetinib]
Method in brief: as §1

[2] = compound: Cc1cccc(CC(=O)N2CCc3c2ccc(-c2cn(C)c4ncnc(N)c24)c3F)n1
Method in brief: as §1

nilotinib = compound: Cc1cn(-c2cc(NC(=O)c3ccc(C)c(Nc4nccc(-c5cccnc5)n4)c3)cc(C(F)(F)F)c2)cn1 [nilotinib]
Method in brief: as §1

[3] = compound: Cc1nc(Nc2n[nH]c3c2CN(C(=O)N[C@H](CN(C)C)c2ccccc2)C3(C)C)c2sccc2n1
Method in brief: as §1

dasatinib = compound: Cc1nc(Nc2ncc(C(=O)Nc3c(C)cccc3Cl)s2)cc(N2CCN(CCO)CC2)n1 [dasatinib]
Method in brief: as §1

[4] = compound: Cc1ncc(-c2ccnc(Nc3ccc(S(C)(=O)=O)cc3)n2)n1C(C)C
Method in brief: as §1

[5] = compound: Cn1cc(-c2ccc3c(c2)CCN3C(=O)Cc2cccc(C(F)(F)F)c2)c2c(N)ncnc21
Method in brief: as §1

quisinostat = compound: Cn1cc(CNCC2CCN(c3ncc(C(=O)NO)cn3)CC2)c2ccccc21 [quisinostat]
Method in brief: as §1

tipifarnib = compound: Cn1cncc1[C@@](N)(c1ccc(Cl)cc1)c1ccc2c(c1)c(-c1cccc(Cl)c1)cc(=O)n2C [tipifarnib]
Method in brief: as §1

[6] = compound: NC(=O)Nc1cc(-c2cccc(F)c2)sc1C(=O)N[C@H]1CCCNC1
Method in brief: as §1

[7] = compound: NC(=O)c1cnc(N[C@@H]2CCCC[C@@H]2N)nc1Nc1cccc(-n2nccn2)c1
Method in brief: as §1

[8] = compound: NC1(c2ccc(-c3nc4ccn5c(=O)[nH]nc5c4cc3-c3ccccc3)cc2)CCC1
Method in brief: as §1

Measured: log2 fold change

HMBS (UniProt P08397)
inactive: lapatinib 0.013 | pictilisib 0.007 | crizotinib 0.03 | [1] 0.042 | duvelisib 0.007 | gandotinib -0.005 | tozasertib -0.018 | doramapimod -0.038 | bafetinib 0.021 | [2] -0.082 | nilotinib 0.017 | [3] 0.002 | dasatinib 0.035 | [4] 0.013 | [5] 0.011 | quisinostat 0.059 | tipifarnib 0.01 | [6] -0.028 | [7] -0.014 | [8] 0.011

HSD17B8 (UniProt Q92506)
inactive: lapatinib -0.017 | pictilisib -0.006 | crizotinib 0.004 | [1] -0.084 | duvelisib 0.006 | gandotinib 0.071 | tozasertib 0.016 | doramapimod -0.007 | bafetinib -0.014 | [2] -0.017 | nilotinib 0.017 | [3] -0.004 | dasatinib -0.005 | [4] 0.029 | [5] -0.003 | quisinostat -0.009 | tipifarnib 0.034 | [6] 0.034 | [7] -0.005 | [8] -0.008

HP1BP3 (UniProt Q5SSJ5)
inactive: lapatinib -0.017 | pictilisib 0.03 | crizotinib 0.012 | [1] -0.003 | duvelisib 0.034 | gandotinib -0.048 | tozasertib 0.008 | doramapimod -0.043 | bafetinib -0.056 | [2] 0.061 | nilotinib -0.004 | [3] 0.002 | dasatinib -0.023 | [4] -0.025 | [5] 0.013 | quisinostat 0.019 | tipifarnib -0.002 | [6] 0.02 | [7] -0.006 | [8] -0.012

HNRNPK isoform 3 (UniProt P61978)
inactive: lapatinib -0.098 | pictilisib 0.006 | crizotinib 0.027 | [1] -0.014 | duvelisib 0.066 | gandotinib 0 | tozasertib -0.038 | doramapimod 0.019 | bafetinib -0.027 | [2] -0.006 | nilotinib -0.018 | [3] -0.045 | dasatinib -0.056 | [4] 0.064 | [5] -0.071 | quisinostat -0.029 | tipifarnib 0.038 | [6] 0.057 | [7] 0.017 | [8] -0.063

HK1 isoform 2 (UniProt P19367)
inactive: lapatinib 0 | pictilisib -0.009 | crizotinib -0.023 | [1] -0.026 | duvelisib -0.033 | gandotinib -0.051 | tozasertib 0.038 | doramapimod 0.039 | bafetinib -0.023 | [2] 0.029 | nilotinib 0.011 | [3] 0 | dasatinib -0.026 | [4] -0.005 | [5] -0.008 | quisinostat -0.013 | tipifarnib 0.007 | [6] 0.008 | [7] -0.005 | [8] 0

HMGN2 (UniProt P05204)
inactive: lapatinib -0.077 | pictilisib 0.01 | crizotinib 0.157 | [1] 0.013 | duvelisib -0.015 | gandotinib 0.022 | tozasertib -0.072 | doramapimod -0.091 | bafetinib -0.011 | [2] -0.029 | nilotinib -0.019 | [3] 0.023 | dasatinib -0.005 | [4] -0.018 | [5] -0.019 | quisinostat 0.081 | tipifarnib 0.009 | [6] -0.006 | [7] 0.083 | [8] 0.006

HMGN5 (UniProt P82970)
inactive: lapatinib -0.058 | pictilisib 0.032 | crizotinib 0.046 | [1] 0.239 | duvelisib 0.018 | gandotinib -0.081 | tozasertib 0.02 | doramapimod -0.066 | bafetinib 0.013 | [2] -0.184 | nilotinib 0.029 | [3] 0.001 | dasatinib 0.03 | [4] 0.019 | [5] -0.003 | quisinostat 0.074 | tipifarnib 0.04 | [6] -0.042 | [7] -0.027 | [8] -0.003

HMGB3 (UniProt O15347)
inactive: lapatinib 0.054 | pictilisib 0.085 | crizotinib 0.014 | [1] 0.008 | duvelisib -0.002 | gandotinib -0.034 | tozasertib -0.018 | doramapimod -0.045 | bafetinib -0.011 | [2] -0.103 | nilotinib 0.016 | [3] 0.025 | dasatinib 0.052 | [4] 0.003 | [5] -0.052 | quisinostat 0.043 | tipifarnib 0.025 | [6] -0.023 | [7] -0.038 | [8] -0.007
